Some of these results come from one statement about several compounds together. At least one compound was matched to its structure with a doubt left.
System: GSK-3
Assay: Immunoblotting with phospho-specific antibodies: GSK-3 phosphorylation
Format: cell-based
[1] = summary, cell line not specified

Row | Compound | phosphorylation of GSK-3 (MB468 cells, FIG. 3D) | phosphorylation of GSK-3 [1]
1 | CCCCCCCCCCCCCCCCCCOCC(COP(=O)(O)OC1C(OCC(C)C)CC(O)C(O)C1O)OC (stereo not drawn) [SH23] | decreased | attenuated
2 | CCCCCCCCCCCCCCCCCCOCC(COP(=O)(O)OC1C(OCC2CCCCC2)CC(O)C(O)C1O)OC (stereo not drawn) [SH24] | decreased | attenuated
3 | CCCCCCCCCCCCCCCCCCOCC(COP(=O)(O)OC1C(O)CCC(O)C1O)OC (stereo not drawn) [SH25] | decreased | attenuated

Reference: patent US7378403B2, “Akt inhibitors, pharmaceutical compositions, and uses thereof” (The United States of America as represented by the …, priority 2002, dated 2008)
